Measured data: PubChem BioAssay AID1259254 (NCATS, 2017)
Here is a random part of about 59,000 deposited reagents. Over the whole deposit, about 1,550 (2.6%) are marked active. 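G2 share is only a proxy for re-replication; each gene was hit by three separate siRNAs, and active genes were retested.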 The raw values are shown without normalisation. The numbers tell different reagents against one gene apart. The record does not give: the amount of reagent.

Purpose: 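Gene knock-downs that lead to re-replication, shown by excess G2 DNA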 (primary screen)
System: human HCT116 colorectal cancer cells
Reagents: single siRNA against human genes
Timing: 3 days
Detection: 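Nuclei stained with Hoechst and imaged; cell-cycle phase assigned by DNA content; G2 share scaled per plate, non-targeting siRNA 0%, GMNN siRNA 100%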
Direction: G2 robust z-score and G2 cells, % of GMNN control: higher = more G2 cells, more excess DNA replication; raw share of cells in G2: higher = larger share of cells with G2 DNA content
Hit rule: 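Active siRNAs have a G2 robust z of 5 or more median absolute deviations over the median, which in these data means about 38% or higher of GMNN control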

no.	Gene	reagent	G2 robust z-score	G2 cells, % of GMNN control	raw share of cells in G2 (%)	call
1	JMJD7-PLA2G4B	1	2.52	20.7	12.5	inactive
2	JMJD7-PLA2G4B	2	-1.39	-6.84	2.26	inactive
3	JMJD7-PLA2G4B	3	0.295	5.04	6.83	inactive
4	LCN2	1	-0.807	-2.71	4.4	inactive
5	LCN2	2	-1.18	-5.36	3.29	inactive
6	LCN2	3	-1.29	-6.11	1.18	inactive
7	SPIN4	1	0.318	5.2	6.14	inactive
8	SPIN4	2	1.16	11.1	6.62	inactive
9	SPIN4	3	-0.179	1.71	3.2	inactive
10	ZIC4	1	-0.484	-0.441	2.64	inactive
11	ZIC4	2	-0.945	-3.68	4.25	inactive
12	ZIC4	3	0.901	9.31	6.56	inactive
13	ZDHHC18	1	2.05	17.4	10.5	inactive
14	ZDHHC18	2	0.335	5.32	6.76	inactive
15	ZDHHC18	3	4.49	34.5	19.8	inactive
16	LOC648149 (retired record)	1	-0.0625	2.53	4.73	inactive
17	LOC648149 (retired record)	2	-0.529	-0.751	2.95	inactive
18	LOC648149 (retired record)	3	-1.07	-4.59	1.59	inactive
19	PLAUR	1	-0.108	2.21	5.51	inactive
20	PLAUR	2	1.17	11.2	7.68	inactive
21	PLAUR	3	1.59	14.2	7.76	inactive
22	ADHFE1	1	2.97	23.9	17.3	inactive
23	ADHFE1	2	-0.465	-0.303	4.59	inactive
24	ADHFE1	3	4.19	32.5	18.3	inactive
25	CCDC159	1	-0.767	-2.43	3.26	inactive
26	CCDC159	2	-0.0365	2.71	3.96	inactive
27	CCDC159	3	-0.612	-1.34	2.09	inactive
28	KRT12	1	-0.906	-3.41	4.39	inactive
29	KRT12	2	1.55	13.9	9.29	inactive
30	KRT12	3	1.23	11.6	9.27	inactive
31	MED14OS	1	-0.262	1.13	3.27	inactive
32	MED14OS	2	-0.814	-2.76	2.56	inactive
33	MED14OS	3	-0.849	-3.01	2.4	inactive
34	GRAMD4	1	1.63	14.5	10.7	inactive
35	GRAMD4	2	3.03	24.3	14.2	inactive
36	GRAMD4	3	-0.983	-3.95	1.7	inactive
37	PMEL	1	0.787	8.5	8.59	inactive
38	PMEL	2	-0.572	-1.06	3.8	inactive
39	PMEL	3	2.93	23.6	11.9	inactive
40	SPOCK2	1	-0.714	-2.06	2.5	inactive
41	SPOCK2	2	1.23	11.6	9.47	inactive
42	SPOCK2	3	-0.924	-3.54	3.87	inactive
43	DHDDS	1	-0.251	1.2	5.93	inactive
44	DHDDS	2	0.459	6.2	6.44	inactive
45	DHDDS	3	-1.18	-5.31	2.82	inactive
46	CLDN8	1	-0.782	-2.54	2.68	inactive
47	CLDN8	2	-1.02	-4.24	4.1	inactive
48	CLDN8	3	2.12	17.9	10.8	inactive
49	BRD10	1	-0.211	1.48	3.23	inactive
50	BRD10	2	1.92	16.5	9.51	inactive
51	BRD10	3	-0.689	-1.88	2.33	inactive
52	BTD	1	2.22	18.6	11	inactive
53	BTD	2	0.531	6.7	6.49	inactive
54	BTD	3	1.95	16.7	11	inactive
55	SIRT4	1	0.386	5.68	8.65	inactive
56	SIRT4	2	-0.377	0.315	4.26	inactive
57	SIRT4	3	-0.0454	2.65	4.77	inactive
58	SYPL2	1	-0.0969	2.29	3.88	inactive
59	SYPL2	2	0.0503	3.32	4.32	inactive
60	SYPL2	3	-0.0385	2.7	4.47	inactive
61	MMP21	1	0.195	4.34	7.43	inactive
62	MMP21	2	-0.779	-2.52	3.65	inactive
63	MMP21	3	-0.992	-4.02	2.77	inactive
64	GAP43	1	0.241	4.66	7.49	inactive
65	GAP43	2	0.268	4.85	5.86	inactive
66	GAP43	3	0.239	4.65	5.34	inactive
67	KDM5C	1	-1.24	-5.76	1.61	inactive
68	KDM5C	2	0.494	6.44	8.86	inactive
69	KDM5C	3	0.865	9.05	7.13	inactive
70	KLHL36	1	-0.611	-1.33	2.01	inactive
71	KLHL36	2	2.99	24	14.4	inactive
72	KLHL36	3	0.0294	3.17	5.69	inactive
73	UBAC2	1	-0.119	2.13	5.18	inactive
74	UBAC2	2	1.58	14.1	11.6	inactive
75	UBAC2	3	-0.0642	2.52	5.2	inactive
76	CDK17	1	1.36	12.5	9.75	inactive
77	CDK17	2	-0.797	-2.64	4.52	inactive
78	CDK17	3	-1.11	-4.83	2.32	inactive
79	LOC729968	1	1.18	11.3	8.04	inactive
80	LOC729968	2	0.248	4.71	4.97	inactive
81	LOC729968	3	-0.223	1.4	3.49	inactive
82	LOC729968	4	1.82	15.8	10.3	inactive
83	LOC729968	5	-0.0145	2.87	4.19	inactive
84	LOC729968	6	-0.496	-0.519	2.98	inactive
85	USP22	1	4.38	33.8	17.3	inactive
86	USP22	2	2.48	20.4	12.1	inactive
87	USP22	3	-0.168	1.79	4.58	inactive

7 consecutive records already listed, quoted:
no.	Gene	reagent	G2 robust z-score	G2 cells, % of GMNN control	raw share of cells in G2 (%)	call
57	SIRT4	3	-0.0454	2.65	4.77	inactive
58	SYPL2	1	-0.0969	2.29	3.88	inactive
59	SYPL2	2	0.0503	3.32	4.32	inactive
60	SYPL2	3	-0.0385	2.7	4.47	inactive
61	MMP21	1	0.195	4.34	7.43	inactive
62	MMP21	2	-0.779	-2.52	3.65	inactive
63	MMP21	3	-0.992	-4.02	2.77	inactive
